Several values for one entry are separate records, joined by “and”; a condition that tells them apart may be missing. Equal entries are not always repeated. Hit rate of the full screen: of about 140,000 compounds, about 4,300 (3.1%) were called active. The inconclusive results got no clear call from the source; some entries with a clear call stand among them for comparison.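 Rule for the calls: active = readout at or below -70, meaning at least 70% loss of cells showing the perinucleolar compartment, a nuclear body marking cancer cells; inconclusive = readout between -30 and a set limit; inactive = the rest.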
Assay: High Content Assay for Compounds that inhibit the Assembly of the Perinucleolar Compartment;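 note: plate controls were DMSO wells for no effect and camptothecin positive control wells for full effect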
Settings: PC3M PTB-GFP, PNC prevalence imaging, 16 h; at 10 µM; stronger effect = lower value
Procedure, shortened: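 PC3M cells stably expressing PTB-GFP, 750–1000 cells/well, treated 16 h at 37 °C with compound (23 nl of library stock), in duplicate. After paraformaldehyde fixation and Hoechst stain, imaged at 20x; PNC prevalence scored by image analysis.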

SMILES | activity change (PNC), negative = inhibition
CN(C)C(=O)Oc1ccc(OCc2cccc[n+]2C)cc1 | inconclusive: -37%
CC(=O)C1(c2ccccc2)CCNCC1 | inconclusive: -35.4%
COc1ccc(C=C2C(=O)N(C)C(=O)N(C)C2=O)cc1CSc1ccccn1 | inactive: -12.6%
CC(C)c1ccc(N2C(=O)NC(=O)/C(=C\c3cnc(-c4ccccc4)nc3)C2=O)cc1 | inconclusive: -74.5%
O=C1C=Cc2ccccc2C1=O | inconclusive: -46.3%
O=C(Nc1cccc2ccccc12)c1nn(C23CC4CC(CC(C4)C2)C3)cc1Br | inconclusive: -34.7%
C/C(=N/OC(=O)N(C)C)c1ncc(C(F)(F)F)cc1N1CCOCC1 | active: -84.4%
CC12CC(c3ccccc3O1)C(C(=O)OCc1ccccc1)C(=O)N2 (stereo not given) | active: -119%
C=CCn1c(O)c(C(CC)=Nc2cc(OC)ccc2OC)c(=O)[nH]c1=O | inactive: 30.8%
O=C(CN1CCCC1=O)Nc1ccccc1 | inactive: -3.28%
CSCc1nnc2n1-c1ccc(Cl)cc1C(c1ccccc1)=NC2 | inconclusive: -34%
O=C(Cn1ncc2ccccc21)N1CCC2(CC1)OCCO2 | inconclusive: -43.2%
CC(C)C12CN3CCN(CC(C3)C1O)C2 (stereo not given) | inconclusive: -34.6%
O=C(Cn1c2c(c(-c3ccccc3Cl)cc1=O)CCC2)N1CCC2(CC1)OCCO2 | active: -94.6%
COc1ccccc1/C=C1/C(=N/O)C2CCN1CC2 | inactive: 24.4%
Cc1cc(OCc2nn[nH]n2)c2c3c(c(=O)oc2c1)CCCC3 | inactive: -17.5%
Cc1nc2cc(C(F)(F)F)ccc2n1C1CCN(Cc2nnnn2CCc2ccccc2)CC1 | inconclusive: -58.7%
Cc1ccc2c(c1)CC1(CN2C)C(=O)NC(=O)N(C(C)C)C1=O (stereo not given) | inactive: 19.9%
CN1CCc2c(C#N)c(Cl)nc(Cl)c2C1 | inconclusive: -48.5%
C#CCNc1ccncc1S(=O)(=O)NC(=O)NC(C)C | inconclusive: -33.1%
Cc1cccn2c(=O)c3cc(C(=O)N4CCC5(CC4)OCCO5)n(C)c3nc12 | inconclusive: -60.7%
Cc1ccc(CC2C(=O)N(C)C(=O)N(C)C2=O)s1 | inconclusive: -72.1%
O=c1c(C=NCCN2CCNCC2)c(O)n(C2CCCCC2)c(=O)n1C1CCCCC1 | inconclusive: -40.6%

SMILES | activity change (PNC), negative = inhibition
CCCCCCOc1ccc(CN2CCN(C)CC2)cc1 | inconclusive: -33.6%
COc1cccc(-n2c(O)c(C=NCCN3CCOCC3)c(=O)[nH]c2=O)c1 | inactive: 56.9%
COc1cc(OC)cc(-n2nc(C(=O)N3CCC4(CC3)OCCO4)c3ccccc3c2=O)c1 | inconclusive: -39.4%
Cc1cccnc1-n1c(-c2ccco2)nc2ccccc2c1=O | inactive: 11.1%
CCCC1C(C#N)=C(N)Oc2c1c(=O)oc1ccccc21 (stereo not given) | active: -97.8%
CCn1nc(-c2cccs2)nc2c(=O)n(C)c(=O)nc1-2 | inconclusive: -41.1%
CCCC(=O)OCC[N+](C)(C)C | inconclusive: -53.3%
CC(=O)c1ccc(-c2ccccc2)cc1 | active: -88.1%
CN1CCN(CC(=O)Nc2ccc(Cl)cc2C(=O)c2ccccc2)CC1 | inconclusive: -38%
Cn1c(O)c(N=Nc2ccc(S(=O)(=O)N3CCOCC3)cc2)c(=O)n(C)c1=O | inconclusive: -39.1%
CCOP(=O)(C#CC(C)(C)C)C1(O)CCCCC1 (stereo not given) | inconclusive: -40.8%
COc1cc2c(cc1OC)CN(c1ccc([N+](=O)[O-])c(C(F)(F)F)c1)CC2 | inconclusive: -60.7%
CCCCn1c(=O)c(C=Nc2ccc(Cl)cc2)c(O)n(Cc2ccco2)c1=O | inconclusive: -33.8%
O=C(N/N=C/c1c(O)n(-c2ccccc2)c(=O)[nH]c1=O)c1ccncc1 | inconclusive: -32.2%
CCn1c(O)c(C(c2ccccn2)c2c(O)n(CC)c(=S)[nH]c2=O)c(=O)[nH]c1=S | inactive: 59.9%
CCCCCn1c(N)c(C(=O)NCCN2CCOCC2)c2nc3ccccc3nc21 | inactive: 14.4%
O=C1CN=C(c2ccccc2)c2oc3ccc(Br)cc3c2N1 | inconclusive: -46.4%
C=CCn1c(O)c(C(CC)=NCCC2=CCCCC2)c(=O)[nH]c1=O | inactive: -24.3%
C=CCn1c(O)c(C(CC)=Nc2ccccc2NC(C)=O)c(=O)[nH]c1=O | inconclusive: -56.9%
CC1(C)C2CC=C(CN3CCC(O)CC3)C1C2 (stereo not given) | inconclusive: -49.1%
Cc1cccc(CS(=O)(=O)Cc2ccc(C(=O)N3CCC4(CC3)OCCO4)o2)c1 | inactive: 9.75%
Cc1c(/C=N/O)c2ccccc2n1C | inconclusive: -43.5%
CCC(=O)O[C@@H]1[C@@H](OC(C)=O)[C@@]2(O)C(C[C@H](O)C2(C)C)[C@](C)(O)[C@H]2CC[C@@H]3[C@@H](O)[C@]12C[C@@]3(C)O (stereo not given in full) | inconclusive: -35.2%

SMILES | activity change (PNC), negative = inhibition
C/C(Cl)=C/CC1(CN2CCCC2=O)C(=O)NC(=O)NC1=O | active: -122%
O=C1/C(=C/c2cc([N+](=O)[O-])ccc2Cl)N2CCC1CC2 | inactive: -10.8%
CC(C)c1ccc(C2N3CCCN23)cc1 (stereo not given) | inconclusive: -60.1%
Cc1oc(-c2ccc(Cl)cc2)nc1CS(=O)CC(=O)N1CCC2(CC1)OCCO2 (stereo not given) | inactive: 68.3%
O=C1C(=O)c2ccccc2-c2ccccc21 | inconclusive: -77.8%
COc1ccc(S(=O)(=O)NC(CC(=O)N2CCC3(CC2)OCCO3)c2ccco2)cc1 (stereo not given) | inconclusive: -48.7%
CC(Cc1ccccc1Sc1ccc(O)cc1)N(C)C (stereo not given) | inconclusive: -53.8%
C=C(c1ccccc1)P(=O)(O)O | active: -113%
COc1c(O)ccc2c1-c1c3c(cc4c1C(C2)N(C)CC4)OCO3 (stereo not given) | inconclusive: -46.3%
CCCCC1C(=O)NC(=S)NC1=O | inactive: -14.6%
CC(=NCc1cccnc1)c1c(O)n(C2CCCCC2)c(=O)[nH]c1=O | inconclusive: -65.7%
CC(=NCc1cccnc1)c1c(O)n(-c2ccccc2C)c(=O)[nH]c1=O | inconclusive: -33.2%
O=c1c2ccccc2nc(-c2ccco2)n1-c1ccncc1 | inactive: -6.42%
Cc1cc(NC(=O)COC(=O)c2c(C)nn(Cc3ccccc3)c2Cl)no1 | inactive: 4.33%
O=c1[nH]c(=O)n(Cc2ccc(F)cc2)c(O)c1C=NCc1cccnc1 | inconclusive: -30.5%
Cc1nc2c(=O)n(C)c(=O)nc-2n(C)n1 | active: -92.8%
O=C(c1cc(C(=O)NCc2ccccc2)c(=O)n(Cc2ccccc2)c1)c1cc(Br)ccc1O | inactive: -21.7%
Cc1cc(OCC(=O)Nc2cc(C)nn2-c2ccccn2)c2c3c(c(=O)oc2c1)CCC3 | inactive: 3.98%
CC/C(=N\Nc1cccc2ccccc12)c1c(O)[nH]c(=O)[nH]c1=O | inactive: 2.43%
CN1CCc2nc3sc(C(=O)NC(C)(C)C)c(N)c3cc2C1 | inactive: 14%
CCCCNC(=O)c1c(N)n(Cc2ccc3c(c2)OCO3)c2nc3ccccc3nc12 | inconclusive: -61.8%
Cc1ccc(N2C(=O)NC(=O)/C(=C/C=C/c3ccco3)C2=O)cc1 | inconclusive: -47.4%
CCCC(C)C1(CC)C(=O)NC(=Nc2ccc(F)cc2)NC1=O (stereo not given) | inconclusive: -73.9%

SMILES | activity change (PNC), negative = inhibition
CCC(=NCc1ccc2c(c1)OCO2)c1c(O)n(C)c(=O)n(C)c1=O | inconclusive: -33.6%
CN(C)c1cc(N)c2c(n1)CCC2 (tested in a mixture with another compound) | inconclusive: -64.8%
CN(C)C(=O)Oc1ccc(-c2cn3cc(Cl)ccc3n2)cc1 | inconclusive: -37%
O=C(Cc1ccccc1)Oc1cccc(N2C(=O)CCC2=O)c1 | active: -99.6%
CCOC(=O)C(C)Oc1cc(C)cc2oc(=O)c3c(c12)CCCC3 (stereo not given) | inactive: -13%
Cc1ccc(OCC(=O)N2CCN(CC3CC4C=CC3C4)CC2)cc1 (stereo not given) | inconclusive: -44.2%
O=C(c1cc(-c2ccncc2)nc2ccccc12)N1CCC2(CC1)OCCO2 | inconclusive: -34%
CCN1CCN(Cc2nnnn2C(C)(C)C)CC1 | inconclusive: -66.3%
Cc1ccccc1OCCN=Cc1c(O)n(C)c(=O)n(C)c1=O | inconclusive: -31.2%
Cc1cc(C=C2C(=O)NC(=S)NC2=O)c(C)n1-c1ccc2c(c1)OCO2 | inconclusive: -64%
CC(=NCc1cccnc1)c1c(O)n(-c2ccccc2)c(=O)[nH]c1=O | inactive: 6.2%
C[C@@]1(CO)[C@H](O)CC[C@@]2(C)[C@H]1CC[C@H]1C[C@@H]3C[C@@]12CC[C@]3(O)CO | inconclusive: -65.2%
COC(=O)C1C2c3ccccc3OC1(C)N=c1s/c(=C/c3cnn(C)c3)c(=O)n12 (stereo not given) | inactive: 77.2%
O=c1[nH]c(=O)n(CCC2=CCCCC2)c(O)c1/C=N/Nc1ccccc1 | inactive: -27.2%
Cn1nc(-c2ccc(OCC(=O)N3CCN(Cc4ccccc4)CC3)cc2)c2ccccc2c1=O | inactive: -11.6% and inactive: 18%
Cc1ccnc(-n2c(C)nc3ccccc3c2=O)c1 | inconclusive: -45.3%
CCN1C(=O)C(=Cc2cc(C)n(C3CC3)c2C)C(=O)N(CC)C1=S | inactive: 2.58%
O=c1c2ccccc2nc(CSc2ncnc3nc[nH]c23)n1-c1ccc(Cl)c(Cl)c1 | inconclusive: -35.4%
C=CCN1C(=O)/C(=C/c2ccc(N3CCOCC3)o2)C(=O)NC1=S | inactive: 50.4%
COc1ccc(C2C([N+](=O)[O-])=C(N)Oc3c2c(=O)oc2ccccc32)cc1 (stereo not given) | inconclusive: -57.7%
COc1ccc(N2C(=O)CC(=O)NC2=O)cc1 | inconclusive: -34.7%

Some of the entries above in another layout:
SMILES	activity change (PNC), negative = inhibition
O=c1[nH]c(=O)n(Cc2ccc(F)cc2)c(O)c1C=NCc1cccnc1	inconclusive: -30.5%
Cc1nc2c(=O)n(C)c(=O)nc-2n(C)n1	active: -92.8%
O=C(c1cc(C(=O)NCc2ccccc2)c(=O)n(Cc2ccccc2)c1)c1cc(Br)ccc1O	inactive: -21.7%
Cc1cc(OCC(=O)Nc2cc(C)nn2-c2ccccn2)c2c3c(c(=O)oc2c1)CCC3	inactive: 3.98%
CC/C(=N\Nc1cccc2ccccc12)c1c(O)[nH]c(=O)[nH]c1=O	inactive: 2.43%
CN1CCc2nc3sc(C(=O)NC(C)(C)C)c(N)c3cc2C1	inactive: 14%
CCCCNC(=O)c1c(N)n(Cc2ccc3c(c2)OCO3)c2nc3ccccc3nc12	inconclusive: -61.8%
Cc1ccc(N2C(=O)NC(=O)/C(=C/C=C/c3ccco3)C2=O)cc1	inconclusive: -47.4%
CCCC(C)C1(CC)C(=O)NC(=Nc2ccc(F)cc2)NC1=O (stereo not given)	inconclusive: -73.9%
CCC(=NCc1ccc2c(c1)OCO2)c1c(O)n(C)c(=O)n(C)c1=O	inconclusive: -33.6%
CN(C)c1cc(N)c2c(n1)CCC2 (tested in a mixture with another compound)	inconclusive: -64.8%
CN(C)C(=O)Oc1ccc(-c2cn3cc(Cl)ccc3n2)cc1	inconclusive: -37%
O=C(Cc1ccccc1)Oc1cccc(N2C(=O)CCC2=O)c1	active: -99.6%
CCOC(=O)C(C)Oc1cc(C)cc2oc(=O)c3c(c12)CCCC3 (stereo not given)	inactive: -13%
Cc1ccc(OCC(=O)N2CCN(CC3CC4C=CC3C4)CC2)cc1 (stereo not given)	inconclusive: -44.2%
O=C(c1cc(-c2ccncc2)nc2ccccc12)N1CCC2(CC1)OCCO2	inconclusive: -34%
CCN1CCN(Cc2nnnn2C(C)(C)C)CC1	inconclusive: -66.3%
Cc1ccccc1OCCN=Cc1c(O)n(C)c(=O)n(C)c1=O	inconclusive: -31.2%
Cc1cc(C=C2C(=O)NC(=S)NC2=O)c(C)n1-c1ccc2c(c1)OCO2	inconclusive: -64%
CC(=NCc1cccnc1)c1c(O)n(-c2ccccc2)c(=O)[nH]c1=O	inactive: 6.2%
C[C@@]1(CO)[C@H](O)CC[C@@]2(C)[C@H]1CC[C@H]1C[C@@H]3C[C@@]12CC[C@]3(O)CO	inconclusive: -65.2%
COC(=O)C1C2c3ccccc3OC1(C)N=c1s/c(=C/c3cnn(C)c3)c(=O)n12 (stereo not given)	inactive: 77.2%
O=c1[nH]c(=O)n(CCC2=CCCCC2)c(O)c1/C=N/Nc1ccccc1	inactive: -27.2%
Cn1nc(-c2ccc(OCC(=O)N3CCN(Cc4ccccc4)CC3)cc2)c2ccccc2c1=O	inactive: -11.6% and inactive: 18%
